Experimental data from patent publication US20150078996A1 (Merck Sharp & Dohme, published 2015).
Results are given in words; binding and its absence hold for the method and conditions named. Some entries that bind do so weakly or less than the wild type.

The chains behind the UniProt entries cited, without tags or fusion partners. Residues count along the entry.
UniProt P08069, residues 31-1367: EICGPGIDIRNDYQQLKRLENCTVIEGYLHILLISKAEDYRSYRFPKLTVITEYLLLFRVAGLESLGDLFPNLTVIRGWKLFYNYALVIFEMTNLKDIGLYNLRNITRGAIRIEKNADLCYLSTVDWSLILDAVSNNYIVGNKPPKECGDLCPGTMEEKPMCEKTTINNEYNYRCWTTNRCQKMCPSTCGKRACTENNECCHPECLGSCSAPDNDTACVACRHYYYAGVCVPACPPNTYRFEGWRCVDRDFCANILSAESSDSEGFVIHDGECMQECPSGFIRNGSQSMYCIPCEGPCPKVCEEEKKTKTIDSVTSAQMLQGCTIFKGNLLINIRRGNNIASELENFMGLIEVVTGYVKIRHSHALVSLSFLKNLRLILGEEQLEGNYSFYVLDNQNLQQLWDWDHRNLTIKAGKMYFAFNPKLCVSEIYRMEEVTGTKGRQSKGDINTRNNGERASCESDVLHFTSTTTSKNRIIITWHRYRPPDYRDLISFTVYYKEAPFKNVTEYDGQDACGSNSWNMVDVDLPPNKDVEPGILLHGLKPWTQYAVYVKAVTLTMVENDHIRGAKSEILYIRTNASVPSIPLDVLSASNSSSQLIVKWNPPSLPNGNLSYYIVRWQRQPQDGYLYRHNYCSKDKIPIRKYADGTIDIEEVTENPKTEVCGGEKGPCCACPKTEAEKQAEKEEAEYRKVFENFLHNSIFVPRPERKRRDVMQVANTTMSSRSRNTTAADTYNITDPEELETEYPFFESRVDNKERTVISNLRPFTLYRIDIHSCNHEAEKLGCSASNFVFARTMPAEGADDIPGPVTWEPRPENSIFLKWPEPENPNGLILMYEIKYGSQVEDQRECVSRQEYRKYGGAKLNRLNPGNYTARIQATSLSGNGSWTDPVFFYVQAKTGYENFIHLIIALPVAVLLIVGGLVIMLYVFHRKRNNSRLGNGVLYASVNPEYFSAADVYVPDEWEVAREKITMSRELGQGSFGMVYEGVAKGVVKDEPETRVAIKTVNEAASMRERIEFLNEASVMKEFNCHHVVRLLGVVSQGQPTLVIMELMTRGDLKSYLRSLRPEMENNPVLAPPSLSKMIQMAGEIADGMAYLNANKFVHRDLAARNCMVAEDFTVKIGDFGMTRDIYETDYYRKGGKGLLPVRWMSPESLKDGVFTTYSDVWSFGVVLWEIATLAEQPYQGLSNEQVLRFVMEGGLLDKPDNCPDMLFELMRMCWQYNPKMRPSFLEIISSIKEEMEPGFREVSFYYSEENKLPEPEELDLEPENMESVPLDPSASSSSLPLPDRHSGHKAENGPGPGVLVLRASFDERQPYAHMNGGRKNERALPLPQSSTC
UniProt P01344, residues 25-91: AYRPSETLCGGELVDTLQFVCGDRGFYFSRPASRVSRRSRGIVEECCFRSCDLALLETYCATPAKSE

Molecular target: full length hIGF-1R from membrane extracts of NIH 3T3 cells overexpressing IGF-1R (human) (UniProt P08069)
Assay: competition with 100 pM 125I-IGF-1 for hIGF-1R captured by mAb 17-69 on Protein A FlashPlate

binding: binds
Substance: IGF-2 (from UniProt P01344 25-91) (ligand)
